Article PMC6283879, “Structural assembly of the megadalton-sized receptor for intestinal vitamin B12 uptake and kidney protein reabsorption” (Nature Communications, 2018)
Numbering of substitutions follows the chain as printed. Names and notes keep the numbering of the source. No constants are given. Whether binding was seen depends on the method and setting. For some of these results: In cells and extracts the contact can be indirect. Some results given as binding are weak or reduced against the parent protein; the word gives no strength.

Sequences of proteins named here, by UniProt entry; tags and fusion partners are left off. A change or cut given only in a name is not applied to a line headed by its entry. Residues count along the entry.
UniProt P27352, residues 19-417: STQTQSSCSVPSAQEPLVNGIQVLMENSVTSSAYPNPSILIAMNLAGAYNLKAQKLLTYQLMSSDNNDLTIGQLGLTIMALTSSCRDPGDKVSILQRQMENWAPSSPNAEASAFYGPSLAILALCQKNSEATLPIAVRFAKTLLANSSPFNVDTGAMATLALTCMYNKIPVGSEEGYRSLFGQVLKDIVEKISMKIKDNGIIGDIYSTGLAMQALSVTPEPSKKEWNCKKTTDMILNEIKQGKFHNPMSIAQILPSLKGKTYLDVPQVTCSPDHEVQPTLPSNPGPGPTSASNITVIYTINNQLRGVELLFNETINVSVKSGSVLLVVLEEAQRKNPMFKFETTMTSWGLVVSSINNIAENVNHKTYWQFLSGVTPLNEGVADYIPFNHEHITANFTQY
UniProt F1RWC3: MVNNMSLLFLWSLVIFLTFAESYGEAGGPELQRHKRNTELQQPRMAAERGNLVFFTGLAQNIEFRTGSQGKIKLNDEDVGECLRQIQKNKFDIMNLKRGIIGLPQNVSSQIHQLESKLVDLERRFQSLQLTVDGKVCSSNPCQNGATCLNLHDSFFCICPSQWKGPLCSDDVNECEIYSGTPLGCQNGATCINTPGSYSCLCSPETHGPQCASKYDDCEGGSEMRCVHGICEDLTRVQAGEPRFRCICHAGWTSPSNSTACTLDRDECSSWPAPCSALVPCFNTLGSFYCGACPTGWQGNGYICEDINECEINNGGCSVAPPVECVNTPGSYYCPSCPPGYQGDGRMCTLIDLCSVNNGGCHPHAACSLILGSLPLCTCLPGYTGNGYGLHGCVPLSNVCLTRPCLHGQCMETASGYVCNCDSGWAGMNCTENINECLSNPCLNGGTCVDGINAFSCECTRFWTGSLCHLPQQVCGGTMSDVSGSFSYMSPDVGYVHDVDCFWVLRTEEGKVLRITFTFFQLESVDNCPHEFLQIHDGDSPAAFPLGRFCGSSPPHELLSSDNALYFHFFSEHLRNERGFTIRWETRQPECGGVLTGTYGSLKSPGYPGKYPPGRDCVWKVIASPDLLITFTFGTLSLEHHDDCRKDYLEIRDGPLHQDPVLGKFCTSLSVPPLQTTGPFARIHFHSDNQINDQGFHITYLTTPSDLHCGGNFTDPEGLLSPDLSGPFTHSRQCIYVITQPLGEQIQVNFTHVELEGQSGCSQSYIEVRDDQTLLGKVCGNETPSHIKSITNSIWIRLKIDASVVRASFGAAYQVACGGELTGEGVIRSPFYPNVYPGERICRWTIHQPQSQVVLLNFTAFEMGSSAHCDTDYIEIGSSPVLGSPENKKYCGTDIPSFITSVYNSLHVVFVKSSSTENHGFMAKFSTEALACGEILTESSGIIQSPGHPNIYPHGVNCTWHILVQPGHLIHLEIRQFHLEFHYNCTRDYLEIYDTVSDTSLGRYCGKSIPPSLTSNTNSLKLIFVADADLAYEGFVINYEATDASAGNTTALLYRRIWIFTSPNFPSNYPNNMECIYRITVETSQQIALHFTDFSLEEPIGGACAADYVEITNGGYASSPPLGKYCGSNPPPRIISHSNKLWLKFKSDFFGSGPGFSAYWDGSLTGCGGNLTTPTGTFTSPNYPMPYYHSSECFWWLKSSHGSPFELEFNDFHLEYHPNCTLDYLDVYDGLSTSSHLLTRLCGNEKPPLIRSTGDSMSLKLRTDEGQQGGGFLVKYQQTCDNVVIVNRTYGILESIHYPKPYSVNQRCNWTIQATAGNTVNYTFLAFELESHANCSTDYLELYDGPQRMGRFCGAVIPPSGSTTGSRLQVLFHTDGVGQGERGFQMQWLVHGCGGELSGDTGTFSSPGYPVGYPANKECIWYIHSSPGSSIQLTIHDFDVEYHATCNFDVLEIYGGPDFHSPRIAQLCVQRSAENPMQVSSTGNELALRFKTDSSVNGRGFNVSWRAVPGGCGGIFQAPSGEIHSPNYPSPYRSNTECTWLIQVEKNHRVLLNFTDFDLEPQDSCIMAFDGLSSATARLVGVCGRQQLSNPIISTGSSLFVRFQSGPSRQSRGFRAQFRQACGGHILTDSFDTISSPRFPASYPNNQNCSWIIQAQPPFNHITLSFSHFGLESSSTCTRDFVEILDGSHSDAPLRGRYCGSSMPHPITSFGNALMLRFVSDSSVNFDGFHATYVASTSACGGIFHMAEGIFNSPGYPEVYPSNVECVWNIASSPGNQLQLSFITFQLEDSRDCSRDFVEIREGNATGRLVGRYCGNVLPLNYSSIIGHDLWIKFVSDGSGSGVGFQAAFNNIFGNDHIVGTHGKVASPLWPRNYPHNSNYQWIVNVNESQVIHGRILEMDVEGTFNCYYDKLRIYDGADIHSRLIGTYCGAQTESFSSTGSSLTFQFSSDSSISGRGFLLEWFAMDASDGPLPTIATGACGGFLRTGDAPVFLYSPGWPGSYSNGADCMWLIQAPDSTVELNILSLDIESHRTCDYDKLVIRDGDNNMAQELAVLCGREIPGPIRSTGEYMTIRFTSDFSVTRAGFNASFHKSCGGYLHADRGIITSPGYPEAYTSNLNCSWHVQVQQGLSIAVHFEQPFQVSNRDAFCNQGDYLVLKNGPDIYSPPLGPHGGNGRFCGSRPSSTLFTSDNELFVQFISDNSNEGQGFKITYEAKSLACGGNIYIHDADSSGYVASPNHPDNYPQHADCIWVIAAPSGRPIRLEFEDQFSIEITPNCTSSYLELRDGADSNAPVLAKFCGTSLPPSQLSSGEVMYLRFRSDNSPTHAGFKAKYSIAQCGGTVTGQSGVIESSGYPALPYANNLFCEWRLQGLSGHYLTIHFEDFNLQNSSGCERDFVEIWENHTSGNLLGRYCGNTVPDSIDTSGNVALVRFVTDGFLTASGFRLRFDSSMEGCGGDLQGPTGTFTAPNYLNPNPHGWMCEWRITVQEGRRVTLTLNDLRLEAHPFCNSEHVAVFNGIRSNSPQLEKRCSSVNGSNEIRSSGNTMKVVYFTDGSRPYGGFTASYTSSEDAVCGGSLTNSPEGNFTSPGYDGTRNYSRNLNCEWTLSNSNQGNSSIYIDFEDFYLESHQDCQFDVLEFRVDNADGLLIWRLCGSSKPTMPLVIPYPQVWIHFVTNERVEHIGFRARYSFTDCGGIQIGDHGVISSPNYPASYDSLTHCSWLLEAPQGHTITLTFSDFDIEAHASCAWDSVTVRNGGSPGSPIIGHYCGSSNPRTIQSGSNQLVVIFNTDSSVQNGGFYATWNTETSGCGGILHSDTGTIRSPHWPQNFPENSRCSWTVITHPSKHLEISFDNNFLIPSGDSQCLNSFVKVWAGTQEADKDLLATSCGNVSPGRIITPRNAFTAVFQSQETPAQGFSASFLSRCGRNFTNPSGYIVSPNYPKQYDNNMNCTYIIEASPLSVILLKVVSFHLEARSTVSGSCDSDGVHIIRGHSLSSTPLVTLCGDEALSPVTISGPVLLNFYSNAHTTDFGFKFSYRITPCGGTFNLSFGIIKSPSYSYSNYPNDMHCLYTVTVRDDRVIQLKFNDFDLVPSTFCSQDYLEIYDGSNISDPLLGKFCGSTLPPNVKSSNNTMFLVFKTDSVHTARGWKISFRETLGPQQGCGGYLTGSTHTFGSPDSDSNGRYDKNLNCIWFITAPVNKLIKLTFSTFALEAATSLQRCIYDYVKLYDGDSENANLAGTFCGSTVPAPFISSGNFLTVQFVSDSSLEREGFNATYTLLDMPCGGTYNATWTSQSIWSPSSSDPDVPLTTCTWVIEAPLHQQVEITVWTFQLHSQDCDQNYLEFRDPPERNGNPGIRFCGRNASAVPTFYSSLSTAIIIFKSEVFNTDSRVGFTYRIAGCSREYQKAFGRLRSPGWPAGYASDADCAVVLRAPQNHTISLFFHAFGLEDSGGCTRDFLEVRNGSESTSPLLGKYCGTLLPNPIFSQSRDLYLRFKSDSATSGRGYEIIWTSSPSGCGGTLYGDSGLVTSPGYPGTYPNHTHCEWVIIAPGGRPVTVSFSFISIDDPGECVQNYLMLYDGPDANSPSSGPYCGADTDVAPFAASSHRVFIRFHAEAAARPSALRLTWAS
UniProt F1SAM7: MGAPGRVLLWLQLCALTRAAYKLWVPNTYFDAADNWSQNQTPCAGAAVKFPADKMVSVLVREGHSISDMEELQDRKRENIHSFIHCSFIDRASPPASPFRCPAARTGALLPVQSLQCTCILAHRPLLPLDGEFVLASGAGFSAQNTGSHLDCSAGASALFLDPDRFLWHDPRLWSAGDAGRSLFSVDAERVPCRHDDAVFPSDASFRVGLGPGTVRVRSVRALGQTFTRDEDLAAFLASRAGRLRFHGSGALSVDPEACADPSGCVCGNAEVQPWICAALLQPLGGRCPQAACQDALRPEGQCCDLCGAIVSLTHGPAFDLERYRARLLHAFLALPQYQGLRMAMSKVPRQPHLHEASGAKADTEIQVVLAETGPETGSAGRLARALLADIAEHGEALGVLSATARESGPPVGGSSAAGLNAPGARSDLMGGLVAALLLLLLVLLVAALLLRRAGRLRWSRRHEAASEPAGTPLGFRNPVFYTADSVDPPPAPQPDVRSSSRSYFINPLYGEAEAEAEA

B1: N-terminal fragment of cubilin (residues 26–135) (domain or fragment, human, UniProt O60494 26-135, looked up)
chain: GELELQRQKRSINLQQPRMATERGNLVFLTGSAQNIEFRTGSLGKIKLNDEDLSECLHQIQKNKEDIIELKGSAIGLPQNISSQIYQLNSKLVDLERKFQGLQQTVDKKV
notes: The methods name 'human' before AMN only ('human AMN ... and the N-terminal fragment of cubilin'); Cloned into the NdeI site of multiple cloning site 2 of pACYCDuet-1; also called trimeric cubilin; source: also in E. coli lysate / His-tag column eluate with the AMN T41I mutant

Legend:
[1] = target: human intrinsic factor in complex with vitamin B12 (IF-B12) (human) (UniProt P27352); assay: affinity chromatography; human IF-B12 immobilised on a column; solubilised porcine kidney membranes applied in 10 mM HEPES, 140 mM NaCl, 2 mM CaCl2, 1 mM MgCl2, 0.3% CHAPS; bound proteins eluted with 10 mM EDTA; only the target purified
[2] = target: full-length cubam purified from porcine kidney (porcine (endogenous in kidney)) (UniProt F1RWC3+F1SAM7); assay: negative-stain electron microscopy; purified porcine cubam in the presence of Ca2+ (20 mM Tris–HCl pH 7.6, 150 mM KCl, 5 mM CaCl2, 0.3% CHAPS); 2% uranyl formate; single-stem and double-stem forms; both purified
[3] = target: T1, AMN(20–357) T41I mutant (human) (UniProt Q9BXJ7); assay: pull-down; thioredoxin–AMN(20–357) T41I and cubilin(26–135) co-expressed in E. coli ShuffleT7; lysate supernatant loaded on a His-tag purification column (20 mM HEPES pH 7.6, 500 mM NaCl, 5 mM imidazole, 10% glycerol), imidazole gradient; eluate blotted with AMN 17-44-3 and cubilin 17-44-5
T1 sequence: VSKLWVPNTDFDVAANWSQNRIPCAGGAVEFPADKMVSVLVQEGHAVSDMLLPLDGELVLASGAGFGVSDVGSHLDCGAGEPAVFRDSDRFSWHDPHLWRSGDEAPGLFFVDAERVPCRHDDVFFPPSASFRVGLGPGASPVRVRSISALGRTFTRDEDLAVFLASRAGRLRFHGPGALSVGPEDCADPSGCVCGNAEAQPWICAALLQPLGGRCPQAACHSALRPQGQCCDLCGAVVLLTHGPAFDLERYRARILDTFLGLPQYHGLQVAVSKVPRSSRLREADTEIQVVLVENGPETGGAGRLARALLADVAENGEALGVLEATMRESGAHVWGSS

[4] = target: T2, ectodomain of human AMN (residues 20–357) (human) (UniProt Q9BXJ7); assay: crystal structure; AMN(20–357) and cubilin(26–135) co-expressed in E. coli and co-purified; crystals at 4 °C, sitting drop, 1.5 M magnesium sulphate, 0.1 M MES pH 5.5; 2.3 Å, SAD phasing; both purified
T2 sequence: T1 sequence with I22T

Molecule	binding [1]	binding [2]	binding [3]	binding [4]
full-length cubam purified from porcine kidney (from UniProt F1RWC3 37-3625; F1SAM7 20-519) (complex)	binds	binds		
B1			binds	binds
